From article PMC11961382
These are yes or no findings as the source states them, for the method shown. In cells and extracts the contact can be indirect. Some results given as binding are weak or reduced against the parent protein; the word gives no strength.

Molecular target: T1, MST2 (STK3), endogenous in Huh7 cells (human (endogenous in Huh7)) (UniProt Q13188)
T1 sequence: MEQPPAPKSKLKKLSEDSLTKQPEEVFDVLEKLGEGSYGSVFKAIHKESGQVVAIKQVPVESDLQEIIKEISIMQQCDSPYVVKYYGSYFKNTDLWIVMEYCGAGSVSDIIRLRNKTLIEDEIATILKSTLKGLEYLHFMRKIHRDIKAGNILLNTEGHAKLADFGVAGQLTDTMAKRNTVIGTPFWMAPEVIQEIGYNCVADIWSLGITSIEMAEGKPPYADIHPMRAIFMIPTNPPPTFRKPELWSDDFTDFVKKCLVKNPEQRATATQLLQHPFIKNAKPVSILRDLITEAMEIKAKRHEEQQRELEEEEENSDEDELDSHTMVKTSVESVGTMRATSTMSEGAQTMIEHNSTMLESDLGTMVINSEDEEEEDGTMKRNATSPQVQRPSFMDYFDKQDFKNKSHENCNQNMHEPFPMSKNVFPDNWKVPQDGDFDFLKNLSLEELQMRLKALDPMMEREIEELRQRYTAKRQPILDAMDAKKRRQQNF
Assay: co-IP; endogenous proteins in Huh7 lysate (RIPA buffer); 2 ug monoclonal antibody and uMACS Protein G MicroBeads, 4 C overnight; washed with RIPA and low salt buffer; western blot; isotype IgG as control

Cyclin-dependent kinase 5 (CDK5), endogenous in Huh7 cells (from UniProt Q00535 1-292) (enzyme)
binding: binds
